Measurements reported in PubChem BioAssay AID686937 (Drosophila RNAi Screening Center, 2013).

Test: 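Knock-downs that reduce output of a secreted reporter enzyme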 (primary screen)
Cells: Drosophila S2 cells expressing secreted horseradish peroxidase
Knock-down reagent: long dsRNA against Drosophila genes
Timing: about 5.5 days (5 days dsRNA, then 12 h reporter induction)
Conditions: reporter expression induced after 5 days of dsRNA, read 12 h later; inducer not stated
Measured: 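After 5 days of dsRNA and 12 h of reporter induction, medium peroxidase read by chemiluminescence and scored as per-plate z-score; higher values mean more reporter released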
Scale: z-score: higher = more reporter secreted into medium
The deposit covers about 23,000 reagents; this is a random part of those with a known target gene and a result. 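Reduced-secretion tags in replicate 1 do not always agree with the z-scores; no criterion for assigning the tags was given.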 A plus sign joins genes that one reagent is predicted to hit. Reagent sequences are not shown. The record does not give: the amount of reagent.

| target gene | dsRNA | z-score, replicate 1 | z-score, replicate 2 | z-score, replicate 3 | z-score, replicate 4 | phenotype, replicate 1 |
| --- | --- | --- | --- | --- | --- | --- |
| rec (recombination-defective) | DRSC14998 | 0.06 | 0.18 | – | – | – |
| rec (recombination-defective) | DRSC15656 | 0.11 | 0.17 | – | – | – |
| bbg (big bang) | DRSC11077 | 0.63 | 0.56 | – | – | – |
| bbg (big bang) | DRSC11079 | 0.19 | 0.35 | – | – | – |
| CG10038 | DRSC14178 | 0.33 | 0.38 | – | – | – |
| NijB (Ninjurin B) | DRSC09850 | 0.63 | 0.48 | – | – | – |
| SP1173 | DRSC11277 | 0.35 | 0.15 | – | – | – |
| CG32073 | DRSC09087 | 0.22 | 0.33 | – | – | – |
| CG32073 | DRSC09894 | 0.53 | 0.46 | – | – | – |
| CG14626 | DRSC18631 | 0.41 | 0.39 | – | – | – |
| Rgk2 (Rad, Gem/Kir family member 2) | DRSC06503 | 0.3 | 0.18 | – | – | – |
| Rgk2 (Rad, Gem/Kir family member 2) | DRSC21651 | -0.66 | -0.57 | – | – | – |
| CG13054 | DRSC09935 | 0.04 | 0.01 | – | – | – |
| DCTN6-p27 (Dynactin 6, p27 subunit) | DRSC02609 | 0.08 | 0.21 | 0.41 | 0.14 | – |
| DCTN6-p27 (Dynactin 6, p27 subunit) | DRSC22810 | -0.08 | -0.71 | – | – | – |
| CG14315 | DRSC14794 | 0.39 | 0.33 | – | – | – |
| lncRNA:CR43337 (long non-coding RNA:CR43337) | DRSC07893 | 0.39 | 0.36 | – | – | – |
| CG42788 | DRSC15330 | 0.31 | 0.46 | – | – | – |
| CG42788 | DRSC16139 | 0.34 | 0.09 | – | – | – |
| CG42788 | DRSC16152 | 0.47 | 0.43 | – | – | – |
| CG7997 | DRSC07052 | 0.36 | 0.27 | – | – | – |
| gt (giant) | DRSC18782 | -0.25 | 0.52 | – | – | – |
| CG13314 | DRSC09985 | 0.19 | 0.23 | – | – | – |
| CG13676 | DRSC10035 | 0.41 | -0.01 | – | – | – |
| CG14692 | DRSC14915 | 0.36 | 0.44 | – | – | – |
| Kap-alpha3 (karyopherin alpha3) | DRSC16976 | 0.06 | -0.95 | – | – | – |
| CG7296 | DRSC03042 | 0.27 | 0.69 | 0.41 | 0.41 | – |
| CG7296 | DRSC22343 | -0.25 | -0.31 | – | – | – |
| rb (ruby) | DRSC18826 | 0.41 | -0.77 | – | – | – |
| CG9123 | DRSC20156 | 0.21 | 0.61 | – | – | – |
| CG12009 | DRSC08217 | 0.41 | 0.33 | – | – | – |
| Cyp6t2Psi (pseudo) | DRSC01840 | 0.32 | 0.37 | – | – | – |
| AdamTS-A (ADAM metallopeptidase with thrombospondin type 1 motif A) | DRSC14992 | 0.1 | 0.05 | – | – | – |
| AdamTS-A (ADAM metallopeptidase with thrombospondin type 1 motif A) | DRSC15966 | 0.34 | 0.45 | – | – | – |
| y (yellow) | DRSC18853 | 0.18 | 0.37 | – | – | – |
| CG6689 | DRSC16095 | 0.39 | 0.4 | – | – | – |
| CR40450 + CG32767 | DRSC18387 | -0.33 | -0.36 | – | – | – |
| CG17267 | DRSC15207 | 0.09 | 0.1 | – | – | – |
| CG1602 | DRSC06601 | 0.54 | 0.4 | – | – | – |
| RpL41 (Ribosomal protein L41) | DRSC22958 | 0.1 | 0 | – | – | – |
| CG12662 | DRSC17865 | -0.77 | -0.03 | – | – | – |
| CG7631 | DRSC01873 | 0.06 | 0.05 | – | – | – |
| Slimp (Seryl-tRNA synthetase-like insect mitochondrial protein) | DRSC13656 | 0.16 | 0.19 | – | – | – |
| CG14247 | DRSC14742 | -1.75 | -2.07 | – | – | reduced secretion |
| CG15185 | DRSC12565 | 0.18 | 0.34 | – | – | – |
| CG12065 | DRSC17798 | 0.23 | 0.26 | – | – | – |
| CG12065 | DRSC17799 | 0.2 | 0.46 | – | – | – |
| cas (castor) | DRSC12373 | 0.19 | -0.44 | – | – | – |
| Gadd45 (Growth arrest and DNA damage-inducible 45) | DRSC06033 | 0.14 | 0.23 | – | – | – |
| CG15169 | DRSC02470 | 0.2 | 0.14 | – | – | – |
| Spg7 (Paraplegin) | DRSC18469 | 0.16 | 0.25 | – | – | – |
| CG8321 | DRSC07148 | 0.28 | 0.33 | – | – | – |
| Cfp1 (CXXC finger protein 1) | DRSC18128 | -0.82 | -6.3 | – | – | – |
| CG13293 | DRSC09967 | 0.12 | 0.31 | – | – | – |
| Pig1 (Pre-intermoult gene 1) | DRSC18698 | -0.32 | 0 | – | – | – |
| LeuRS (Leucyl-tRNA synthetase) | DRSC00581 | -0.99 | -1.08 | – | – | – |
| Yif1 (Yip1-interacting factor 1) | DRSC15817 | -1.03 | -1.43 | – | – | – |
| CG7906 | DRSC10928 | 0.23 | 0.32 | – | – | – |
| Orct2 (Organic cation transporter 2) | DRSC14613 | 0.27 | 0.34 | – | – | – |
| Reps (RALBP1 associated Eps domain containing) | DRSC02940 | 0.1 | 0.16 | – | – | – |
| Coq5 (Coenzyme Q5) | DRSC19849 | -3.14 | 0.37 | 0.42 | -2.49 | – |
| Coq5 (Coenzyme Q5) | DRSC21371 | 1.91 | 0.95 | – | – | – |
| CCT1 (Chaperonin containing TCP1 subunit 1) | DRSC16877 | -0.54 | -1.24 | – | – | – |
| ODA-Dnal1 (Outer dynein arm dynein axonemal light chain 1) | DRSC07270 | -0.01 | 0.15 | – | – | – |
| CG32017 | DRSC17183 | 0.28 | 0.37 | – | – | – |
| CG10576 | DRSC09745 | 0.49 | 0.46 | – | – | – |
| sfl (sulfateless) | DRSC08828 | 0.65 | 0.45 | – | – | – |
| sfl (sulfateless) | DRSC08830 | 0.16 | 0.15 | – | – | – |
| Vha14-1 (Vacuolar H[+] ATPase 14kD subunit 1) | DRSC07571 | -0.1 | -0.48 | – | – | – |
| kst (karst) | DRSC08719 | 0.26 | 0.13 | – | – | – |
| CG13996 | DRSC02328 | 0.24 | 0.27 | – | – | – |
| nAChRalpha7 (nicotinic Acetylcholine Receptor alpha7) | DRSC20078 | 0.69 | 0.27 | – | – | – |
| nAChRalpha7 (nicotinic Acetylcholine Receptor alpha7) | DRSC20081 | 0.42 | 0.22 | – | – | – |
| CG18635 | DRSC06780 | 0.75 | 0.57 | – | – | – |
| Rph (Rabphilin) | DRSC17790 | 0.5 | 0.7 | – | – | – |
| CG31064 | DRSC14756 | 0.31 | 0.65 | – | – | – |
| CG31064 | DRSC15941 | 0.34 | 0.09 | – | – | – |
| CG31064 | DRSC15942 | 0.44 | 0.52 | – | – | – |
| CG31064 | DRSC15943 | 0.27 | 0.21 | – | – | – |
| CG9171 | DRSC03152 | 0.41 | 0.27 | – | – | – |
| CG9171 | DRSC21813 | -0.22 | -0.46 | – | – | – |
| CG13733 | DRSC10061 | 0.06 | 0.35 | – | – | – |
